Laboratory results published in patent US9168245B2, “Selective protein kinase inhibitors” (AB SCIENCE, priority 2011, dated 2015).
Structures can show the parent of a compound that is named as a salt. Some of these results come from one statement about several compounds together.

Amino acid sequences for entries named in this document (tags omitted). Residues count along the entry.
UniProt P10721, 26-976 D816V: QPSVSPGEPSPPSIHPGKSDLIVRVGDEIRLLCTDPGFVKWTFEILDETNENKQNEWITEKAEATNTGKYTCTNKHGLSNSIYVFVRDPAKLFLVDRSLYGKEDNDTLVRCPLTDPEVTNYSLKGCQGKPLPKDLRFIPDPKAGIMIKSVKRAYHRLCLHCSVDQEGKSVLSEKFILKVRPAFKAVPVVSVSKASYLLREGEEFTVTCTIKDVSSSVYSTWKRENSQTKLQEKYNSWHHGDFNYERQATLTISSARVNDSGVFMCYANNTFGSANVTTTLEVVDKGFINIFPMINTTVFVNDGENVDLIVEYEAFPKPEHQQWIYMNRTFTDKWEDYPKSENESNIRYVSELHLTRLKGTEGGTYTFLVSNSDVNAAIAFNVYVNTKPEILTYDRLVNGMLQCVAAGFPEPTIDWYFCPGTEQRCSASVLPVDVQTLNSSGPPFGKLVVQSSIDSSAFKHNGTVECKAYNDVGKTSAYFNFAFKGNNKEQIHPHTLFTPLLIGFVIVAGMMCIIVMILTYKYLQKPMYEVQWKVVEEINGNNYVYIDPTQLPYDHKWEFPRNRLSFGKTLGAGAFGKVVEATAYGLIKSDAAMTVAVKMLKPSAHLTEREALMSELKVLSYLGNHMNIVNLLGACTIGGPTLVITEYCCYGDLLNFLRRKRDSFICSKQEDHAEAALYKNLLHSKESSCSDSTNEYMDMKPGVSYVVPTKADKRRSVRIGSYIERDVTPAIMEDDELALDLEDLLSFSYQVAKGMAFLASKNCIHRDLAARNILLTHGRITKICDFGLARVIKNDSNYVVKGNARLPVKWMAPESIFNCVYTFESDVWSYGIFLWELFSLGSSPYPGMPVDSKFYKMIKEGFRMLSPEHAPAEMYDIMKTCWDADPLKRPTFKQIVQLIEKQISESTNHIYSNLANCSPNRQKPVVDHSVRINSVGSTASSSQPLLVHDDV
UniProt P10721, 26-976: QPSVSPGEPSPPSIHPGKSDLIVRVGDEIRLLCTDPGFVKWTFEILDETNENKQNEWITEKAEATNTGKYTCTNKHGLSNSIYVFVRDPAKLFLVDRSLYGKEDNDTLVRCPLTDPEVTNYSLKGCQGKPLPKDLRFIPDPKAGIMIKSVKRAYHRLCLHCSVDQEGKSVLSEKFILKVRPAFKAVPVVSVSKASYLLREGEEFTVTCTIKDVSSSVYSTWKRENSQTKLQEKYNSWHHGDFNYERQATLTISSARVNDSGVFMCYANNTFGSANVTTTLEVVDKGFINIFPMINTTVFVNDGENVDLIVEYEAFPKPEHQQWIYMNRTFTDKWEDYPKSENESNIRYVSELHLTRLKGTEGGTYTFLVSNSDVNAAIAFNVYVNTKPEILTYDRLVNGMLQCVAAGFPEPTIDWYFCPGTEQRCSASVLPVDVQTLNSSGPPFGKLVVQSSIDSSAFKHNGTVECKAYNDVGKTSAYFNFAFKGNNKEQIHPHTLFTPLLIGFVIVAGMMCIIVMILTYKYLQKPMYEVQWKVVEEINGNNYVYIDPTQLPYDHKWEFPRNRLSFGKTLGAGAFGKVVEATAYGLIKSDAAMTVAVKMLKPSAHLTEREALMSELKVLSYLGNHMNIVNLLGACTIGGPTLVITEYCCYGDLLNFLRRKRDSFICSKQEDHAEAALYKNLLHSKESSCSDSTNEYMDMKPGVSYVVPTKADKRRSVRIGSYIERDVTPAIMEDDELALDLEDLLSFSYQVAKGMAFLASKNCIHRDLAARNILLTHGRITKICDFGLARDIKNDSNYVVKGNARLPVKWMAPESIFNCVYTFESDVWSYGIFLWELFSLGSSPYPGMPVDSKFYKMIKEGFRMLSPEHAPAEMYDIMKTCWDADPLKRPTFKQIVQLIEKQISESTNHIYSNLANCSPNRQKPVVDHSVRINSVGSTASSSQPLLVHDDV

Experiments:
c-kit D816V = molecular target: T1, c-kit D816V (Homo sapiens, UniProt P10721, D816V); assay: Colorimetric cell proliferation and viability assay (CellTiter-Blue) on BaF3 Kit D816V cell line; type: cell-based; details: Ba/F3 cells expressing human Kit D816V, cytokine independent, 48 hours incubation
T1 construct: expressed in transfected cells; host or cells: murine Ba/F3 proB lymphoid cells, cytokine-independent

c-kit WT = molecular target: T2, c-kit WT (Homo sapiens, UniProt P10721); assay: Colorimetric cell proliferation and viability assay (CellTiter-Blue) on BaF3 Kit WT cell line; type: cell-based; details: Ba/F3 cells expressing human Kit WT, stimulated with 250 ng/ml murine SCF, 48 hours incubation
T2 construct: expressed in transfected cells; host or cells: murine Ba/F3 proB lymphoid cells, stimulated with recombinant murine SCF

SMILES	IC50 (c-kit D816V)	IC50 (c-kit WT)
Cc1cc(C)cc(Nc2ncc(-c3cc(Cl)cc(N4CCNC4=O)c3)o2)c1 [Example 001, 1-{3-Chloro-5-[2-(3,5-dimethyl-phenylamino)-oxazol-5-yl]-phenyl}-imidazolidin-2-one]	≤ 1000 nM	≤ 1000 nM
CCOCc1ccc(C)c(Nc2ncc(-c3cccc(-n4ccn(CCN5CCCCC5)c4=O)c3)o2)c1 [Example 013, 1-{3-[2-((5-Ethoxymethyl)-2-methyl-phenylamino)-oxazol-5-yl]-phenyl}-3-(2-piperidin-1-yl-ethyl)-1,3-dihydro-imidazol-2-one]	–	≤ 1000 nM
Cc1ccc(Nc2ccccn2)cc1Nc1ncc(-c2cccc(-n3nc[nH]c3=O)c2)o1 [Example 014, 2-(3-{2-[2-Methyl-5-(pyridin-2-ylamino)-phenylamino]-oxazol-5-yl}-phenyl)-2,4-dihydro-[1,2,4]triazol-3-one]	≤ 1000 nM	≤ 1000 nM
Cc1cn(-c2cc(-c3cnc(Nc4cc(OCCO)ccc4C)o3)ccn2)c(=O)[nH]1 [Example 015, 1-(4-{2-[5-(2-Hydroxy-ethoxy)-2-methyl-phenylamino]-oxazol-5-yl}-pyridin-2-yl)-4-methyl-1,3-dihydro-imidazol-2-one]	–	≤ 1000 nM
CCOCc1ccc(C)c(Nc2ncc(-c3ccnc(N4CCNC4=O)c3)o2)c1 [Example 016, 1-{4-[2-((5-Ethoxymethyl)-2-methyl-phenylamino)-oxazol-5-yl]-pyridin-2-yl)-imidazolidin-2-one]	≤ 1000 nM	≤ 1000 nM
CCOCc1ccc(C)c(Nc2ncc(-c3cc(OC)cc(N4CC(C)(C)NC4=O)c3)o2)c1 [Example 020, 1-{3-[2-((5-Ethoxymethyl)-2-methyl-phenylamino)-oxazol-5-yl]-5-methoxy-phenyl}-4,4-dimethyl-imidazolidin-2-one]	≤ 1000 nM	≤ 1000 nM
Cc1ccc(OCCN2CCOCC2)cc1Nc1ncc(-c2cc(Cl)cc(N3CCNC3=O)c2)o1 [Example 021, 1-(3-Chloro-5-{2-[2-methyl-5-(2-morpholin-4-yl-ethoxy)-phenylamino]-oxazol-5-yl}-phenyl)-imidazolidin-2-one]	≤ 1000 nM	≤ 1000 nM
CCOCc1ccc(C)c(Nc2ncc(-c3cccc(N4CCNC4=O)c3)o2)c1 [Example 024, 1-{3-[2-((5-Ethoxymethyl)-2-methyl-phenylamino)-oxazol-5-yl]-phenyl}-imidazolidin-2-one]	≤ 1000 nM	≤ 1000 nM
CCOCc1ccc(C)c(Nc2ncc(-c3cc(-n4cccn4)cc(-n4nc[nH]c4=O)c3)o2)c1 [Example 025, 2-{3-[2-((5-Ethoxymethyl)-2-methyl-phenylamino)-oxazol-5-yl]-5-pyrazol-1-yl-phenyl}-2,4-dihydro-[1,2,4]triazol-3-one hydrochloride]	≤ 1000 nM	≤ 1000 nM
CCOCc1ccc(C)c(Nc2ncc(-c3cccc(-n4nc[nH]c4=O)c3)o2)c1 [Example 026, 2-{3-[2-((5-Ethoxymethyl)-2-methyl-phenylamino)-oxazol-5-yl]-phenyl}-2,4-dihydro-[1,2,4]triazol-3-one]	≤ 1000 nM	≤ 1000 nM
COc1ccc(C)c(Nc2ncc(-c3ccnc(-n4nc[nH]c4=O)c3)o2)c1 [Example 029, 2-{4-[2-(5-Methoxy-2-methyl-phenylamino)-oxazol-5-yl]-pyridin-2-yl)-2,4-dihydro-[1,2,4]triazol-3-onehydrochloride]	≤ 1000 nM	≤ 1000 nM
COc1ccc(C)c(Nc2ncc(-c3cc(C)cc(N4CCNC4=O)c3)o2)c1 [Example 031, 1-{3-[2-(5-Methoxy-2-methyl-phenylamino)-oxazol-5-yl]-5-methyl-phenyl}-imidazolidin-2-one]	≤ 1000 nM	≤ 1000 nM
Cc1cc(-c2cnc(Nc3cc(OCCO)ccc3C)o2)cc(N2CCNC2=O)c1 [Example 038, 1-(3-{2-[5-(2-Hydroxy-ethoxy)-2-methyl-phenylamino]-oxazol-5-yl}-5-methyl-phenyl)-imidazolidin-2-one]	≤ 1000 nM	≤ 1000 nM
Cc1ccc(CN2CCCC2)cc1Nc1ncc(-c2ccnc(-n3cc[nH]c3=O)c2)o1 [Example 041, 1-{4-[2-(2-Methyl-5-pyrrolidin-1-ylmethyl-phenylamino)-oxazol-5-yl]-pyridin-2-yl}-1,3-dihydro-imidazol-2-one]	–	≤ 1000 nM
Cc1ccc(OCCN2CCOCC2)cc1Nc1ncc(-c2cccc(N3CCNC3=O)c2)o1 [Example 052, 1-(3-{2-[2-Methyl-5-(2-morpholin-4-yl-ethoxy)-phenylamino]-oxazol-5-yl}-phenyl)-imidazolidin-2-one]	≤ 1000 nM	≤ 1000 nM
Cc1cc(-c2cnc(Nc3cc(OCCN4CCOCC4)ccc3C)o2)cc(N2CCNC2=O)c1 [Example 054, 1-(3-Methyl-5-{2-[2-methyl-5-(2-morpholin-4-yl-ethoxy)-phenylamino]-oxazol-5-yl)-phenyl)-imidazolidin-2-one]	≤ 1000 nM	≤ 1000 nM
Cc1ccc(C(=O)O)cc1Nc1ncc(-c2cc(OC(C)C)cc(N3CCNC3=O)c2)o1 [Example 080, 3-{5-[3-Isopropoxy-5-(2-oxo-imidazolidin-1-yl)-phenyl]-oxazol-2-ylamino)-4-methyl-benzoic acid]	–	≤ 1000 nM

SMILES	IC50 (c-kit D816V)	IC50 (c-kit WT)
Cc1cc(C)c(-c2cc(-c3cnc(Nc4cc(OCCN5CCOCC5)ccc4C)o3)ccn2)c(=O)[nH]1 [Example 181, 4′,6′-Dimethyl-4-{2-[2-methyl-5-(2-morpholin-4-yl-ethoxy)-phenylamino]-oxazol-5-yl}-1′H-[2,3′]bipyridinyl-2′-one]	–	≤ 1000 nM
Cc1ccc(OCCN2CCOCC2)cc1Nc1ncc(-c2ccnc(-c3c(C)cc[nH]c3=O)c2)o1 [Example 182, 4′-Methyl-4-{2-[2-methyl-5-(2-morpholin-4-yl-ethoxy)-phenylamino]-oxazol-5-yl}-1′H-[2,3′]bipyridinyl-2′-one]	≤ 1000 nM	–
CCOCc1ccc(C)c(Nc2ncc(-c3ccnc(-c4cc(C)c[nH]c4=O)c3)o2)c1 [Example 184, 4-[2-(5-Ethoxymethyl-2-methyl-phenylamino)-oxazol-5-yl]-5′-methyl-1′H-[2,3′]bipyridinyl-2′-one]	≤ 1000 nM	–
Cc1ccc(-c2cc(-c3cnc(Nc4cc(OCCN5CCOCC5)ccc4C)o3)ccn2)c(=O)[nH]1 [Example 188, 6′-Methyl-4-{2-[2-methyl-5-(2-morpholin-4-yl-ethoxy)-phenylamino]-oxazol-5-yl}-1′H-[2,3′]bipyridinyl-2′-one]	≤ 1000 nM	–
CCOCc1ccc(Cl)c(Nc2ncc(-c3ccnc(-c4ccc(C)[nH]c4=O)c3)o2)c1 [Example 189, 4-[2-(2-Chloro-(5-ethoxymethyl)-phenylamino)-oxazol-5-yl]-6′-methyl-1′H-[2,3′]bipyridinyl-2′-one]	≤ 1000 nM	–
Cc1ccc(NC(=O)CN(C)C)cc1Nc1ncc(-c2ccc(C)c(-c3ccc[nH]c3=O)c2)o1 [Example 192, 2-Dimethylamino-N-(3-{5-[4-methyl-3-(2-oxo-1,2-dihydro-pyridin-3-yl)-phenyl]-oxazol-2-ylamino}-phenyl)-acetamide]	≤ 1000 nM	–
COc1ccc(C)c(Nc2ncc(-c3ccc(C)c(-c4ccc[nH]c4=O)c3)o2)c1 [Example 193, 3-{5-[2-(5-Methoxy-2-methyl-phenylamino)-oxazol-5-yl]-2-methyl-phenyl}-1H-pyridin-2-one]	≤ 1000 nM	–
Cc1cc(C)cc(Nc2ncc(-c3cc(OCCN4CCOCC4)nc(-c4c(C)cc[nH]c4=O)c3)o2)c1 [Example 194, 4-[2-(3,5-Dimethyl-phenylamino)-oxazol-5-yl]-4′-methyl-6-(2-morpholin-4-yl-ethoxy)-1′H-[2,3′]bipyridinyl-2′-one]	≤ 1000 nM	–
COc1ccc(C)c(Nc2ncc(-c3cc(OCCN4CCOCC4)nc(-c4c(C)cc[nH]c4=O)c3)o2)c1 [Example 196, 4-[2-(5-Methoxy-2-methyl-phenylamino)-oxazol-5-yl]-4′-methyl-6-(2-morpholin-4-yl-ethoxy)-1′H-[2,3′]bipyridinyl-2′-one]	≤ 1000 nM	–
Cc1cc(C)cc(Nc2ncc(-c3cc(OCCO)cc(-c4c(C)cc[nH]c4=O)c3)o2)c1 [Example 200, 3-[3-[2-(3,5-Dimethyl-phenylamino)-oxazol-5-yl]-5-(2-hydroxy-ethoxy)-phenyl]-4-methyl-1H-pyridin-2-one hydrochloride]	≤ 1000 nM	–
Cc1cc(C)cc(Nc2ncc(-c3cc(NS(=O)(=O)CC(C)C)cc(-c4c(C)cc[nH]c4=O)c3)o2)c1 [Example 206, 2-Methyl-propane-1-sulfonic acid [3-[2-(3,5-dimethyl-phenylamino)-oxazol-5-yl]-5-(4-methyl-2-oxo-1,2-dihydro-pyridin-3-yl)-phenyl]-amide]	≤ 1000 nM	–
COCCOc1cc(-c2cnc(Nc3cccc(C)c3C)o2)cc(-c2c(C)cc[nH]c2=O)c1 [Example 207, 3-[3-[2-(2,3-Dimethyl-phenylamino)-oxazol-5-yl]-5-(2-methoxy-ethoxy)-phenyl]-4-methyl-1H-pyridin-2-one]	≤ 1000 nM	–
COCCOc1cc(-c2cnc(Nc3cc(C)cc(C#N)c3)o2)cc(-c2c(C)cc[nH]c2=O)c1 [Example 208, 3-{5-[3-(2-Methoxy-ethoxy)-5-(4-methyl-2-oxo-1,2-dihydro-pyridin-3-yl)-phenyl]-oxazol-2-ylamino}-5-methyl-benzonitrile hydrochloride]	≤ 1000 nM	–
Cc1ccc(OCCN2CCOCC2)cc1Nc1ncc(-c2cncc(-c3c(C)cc[nH]c3=O)c2)o1 [Example 210, 4-Methyl-5′-{2-[2-methyl-5-(2-morpholin-4-yl-ethoxy)-phenylamino]-oxazol-5-yl}-1H-[3,3′]bipyridinyl-2-one]	≤ 1000 nM	–
COCc1ccc(C)c(Nc2ncc(-c3ccnc(-n4cc[nH]c4=O)c3)o2)c1 [Example 215, 1-{4-[2-((5-Methoxymethyl)-2-methyl-phenylamino)-oxazol-5-yl]-pyridin-2-yl}-1,3-dihydro-imidazol-2-one hydrochloride]	≤ 1000 nM	–
COc1ccc(C)c(Nc2ncc(-c3cccc(N4CCNC4=O)c3)s2)c1 [Example 216, 1-{3-[2-(5-Methoxy-2-methyl-phenylamino)-thiazol-5-yl]-phenyl}-imidazolidin-2-one]	≤ 1000 nM	–
